Experimental data from PubChem BioAssay AID2685 (National Center for Advancing Translational Sciences (NCATS), 2010).
Some of the results follow. The main result of the screen is listed elsewhere. These columns were measured beside it and carry no call. Most of these compounds were active or inconclusive in the main read-out, so they are no random draw. Words in brackets tell the shape of the fitted curve; partial curves, single points and poor fits give uncertain potencies.

Test: qHTS Assay for Lipid Storage Modulators in Drosophila S3 Cells;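 as to cell number change: cells counted by Cell Tracker Red CMTPX staining in the red channel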
Details: BODIPY lipid droplet fluorescence, 18-24 h; for cell number change: measured here: cell count max response, cells fed with added oleic acid
How it was run: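 Laser-scanning cytometry quantifies lipid droplet accumulation (500–530 nm total intensity; droplet/cell object ratio) in oleic acid-fed (400 uM added) Drosophila S3 cells treated with a concentration series. 20 uM Triacsin C defined 100% inhibition.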

[1] = measured here: lipid fluorescence (Fed channel) AC50, cells fed with added oleic acid
[2] = measured here: cell number channel AC50, cells fed with added oleic acid

| Structure (SMILES) | cell number change | AC50 [1] | AC50 [2] |
| --- | --- | --- | --- |
| O=C(c1cc(COc2ccc3ncccc3c2)on1)N1CCCC(O)C1 (centres undefined) | -21.1% | 20.6 µM [falling, single point] | – |
| CN(c1ccc(C(=O)O)cc1)S(=O)(=O)c1ccccc1 | 4.82% | 5.8 µM [falling, full curve] | – |
| Cc1ccc(C2c3c(C)nn(-c4ccc([N+](=O)[O-])cc4)c3N=C3C(=O)Nc4ccccc4N32)cc1 (centres undefined) | 22.3% | 0.0058 µM [rising, full curve, poor fit] | – |
| Cc1nc2ncnn2c(C)c1CCC(=O)NCc1ccc2c(c1)OCO2 | 0.837% | – | 0.116 µM [rising, full curve, poor fit] |
| CCCCn1c(SCC(=O)c2ccc3c(c2)OCCO3)nnc1-c1ccoc1C | 15% | – | – |
| CS(=O)(=O)N(CCCC(=O)N1CCCCCC1)c1cccc(Cl)c1 | -23.6% | 29.1 µM [falling, single point] | – |
| CC(C)(C)S(=O)(=O)c1ccc2nc3c(n2c1)CCCC3 | -10.2% | 6.51 µM [rising, partial curve, poor fit] | – |
| Cc1cccc(C(C)C)c1NC(=O)C1CCN(S(=O)(=O)c2ccccc2)CC1 | 7.26% | – | – |
| O=C/C(=C\Nc1ccc(Cl)cn1)c1nc2cc(Cl)ccc2o1 | -5.68% | 0.82 µM [falling, full curve] | – |
| O=C(COc1ccccc1)NC(=S)N1CCc2ccccc21 | – | 29.1 µM [rising, single point] | – |
| CNC(=S)N/N=C/c1cn(CCOc2ccc(OC)cc2)c2ccccc12 | 1.75% | 0.82 µM [rising, full curve, poor fit] | – |
| CC(Sc1nnc(CN2CCCC2)n1Cc1ccccc1)C(=O)Nc1ccc(F)cc1 (centres undefined) | 12.9% | – | – |
| CC(C)[C@H](NC(=O)[C@@H]1CSC2c3ccccc3C(=O)N21)C(=O)NC1CCCC1 (some centres undefined) | -35% | 29.1 µM [rising, single point] | 25.9 µM [falling, single point] |
| CCOCCCNC(=O)c1cccc(NC(=O)C2=C(C)OCCS2)c1 | -22.5% | 29.1 µM [falling, single point] | – |
| O=C1C(=O)c2ccccc2C(O)=C1CCCCl | -22.5% | 0.00517 µM [falling, full curve, poor fit] | – |
| CC(C)c1nc(SCC(=O)NC2CCCC2)c2c(=O)n(C)c(=O)n(C)c2n1 | 2.35% | 0.103 µM [falling, full curve, poor fit] | – |
| O=c1[nH]n2c(=O)c3c([nH]c2c1N=Nc1cccc(Cl)c1)CCC3 | 18.6% | 6.51 µM [rising, single point] | – |
| O=C(Cn1ccc2ccccc2c1=O)NCC(=O)N1CCCCC1 | 1.59% | 6.51 µM [rising, single point] | – |
| CC(Oc1ccc(Cl)cc1)c1ccnn1S(C)(=O)=O (centres undefined) | 47.3% | – | 29.1 µM [rising, single point] |
| C=CC(O)(C#CCN(CC)CC)c1ccccc1 (centres undefined) | -27.8% | 25.9 µM [falling, single point] | – |

| Structure (SMILES) | cell number change | AC50 [1] | AC50 [2] |
| --- | --- | --- | --- |
| CC(=O)Nc1ccc(NC(=O)CSc2nnnn2C2CCCCC2)cc1 | 9% | 6.51 µM [rising, single point] | – |
| COc1ccccc1CNC(=O)c1ccc(S(=O)(=O)N2CCCC2)cc1 | – | 5.8 µM [falling, full curve] | – |
| COc1ccc(C(=O)OCC(=O)N2CCCCC2)cc1[N+](=O)[O-] | 35.3% | 7.31 µM [rising, partial curve, poor fit] | 0.0366 µM [rising, full curve, poor fit] |
| O=C(NCC1COCCO1)c1ccc2nc(Cc3cccc(Cl)c3)oc2c1 (centres undefined) | -2.93% | 20.6 µM [rising, single point] | – |
| COc1ccccc1NS(=O)(=O)c1ccc(O)cc1 | 11.1% | – | – |
| O=C(Nc1cccc(C(=O)NC2CC2)c1)c1ccc(Cl)c(S(=O)(=O)N2CCOCC2)c1 | 10.4% | 13 µM [falling, partial curve] | 6.51 µM [rising, single point] |
| Cc1cc(C)n(-c2cccc(Cl)c2C#N)n1 | -8.83% | – | – |
| C=CCN(c1ccccc1)S(=O)(=O)c1cccc(C(=O)Oc2ccc3c(C)cc(=O)oc3c2)c1 | 24.5% | – | – |
| COc1ccccc1/C=C/c1nc2ccc(OC(C)=O)cc2c(=O)o1 | 30.4% | – | – |
| CC(C)(C)C(=O)Nc1ccc(C(=O)CN2C(=O)NC3(CCOc4ccccc43)C2=O)cc1 (centres undefined) | -12% | – | – |
| O=C(COc1ccc(F)cc1)Nc1nnc(C2CC2)s1 | 26.3% | 6.51 µM [falling, single point] | – |
| CSCCC(Nc1ccc(S(=O)(=O)N2CCOCC2)cc1[N+](=O)[O-])C(=O)OCC(=O)N(C(C)C)C(C)C (centres undefined) | 6.71% | 0.651 µM [falling, partial curve, poor fit] | – |
| O=C(NC(=S)Nc1ccc(S(=O)(=O)N2CCCC2)cc1)C1CC1 | -7.01% | 0.731 µM [falling, partial curve, poor fit] | 0.731 µM [falling, single point] |
| Cc1cccc(NC(=O)C(NS(=O)(=O)c2ccc3c(c2)CCC(=O)N3)c2ccccc2)n1 (centres undefined) | 53.6% | 8.2 µM [rising, partial curve] | 11.6 µM [rising, partial curve, poor fit] |
| COc1ccc(O)c(C=Nc2cc(C)on2)c1 | -8.3% | – | – |
| CN1/C(=C\C(=S)NC(=O)c2cccc(Br)c2)C(C)(C)c2ccccc21 | -48.6% | 11.6 µM [falling, partial curve] | 13 µM [falling, partial curve] |
| CN1c2ccsc2C(O)=C(C(=O)Nc2ccccc2)S1(=O)=O | 35% | – | 8.2 µM [rising, partial curve] |
| COc1ccc(Cc2nc3ccc(C(=O)N(C)CCO)cc3o2)cc1 | 18.2% | 23.1 µM [rising, partial curve] | – |
| Cc1ccccc1-c1cc(C(=O)NCc2cccs2)n(CC2CC(c3cccnc3)=NO2)n1 (centres undefined) | 4.27% | 0.116 µM [falling, full curve] | 0.092 µM [falling, single point] |

Arranged by molecular weight (ascending): three of the compounds above.

| Structure (SMILES) | cell number change | AC50 [1] | AC50 [2] |
| --- | --- | --- | --- |
| CC(=O)Nc1ccc(NC(=O)CSc2nnnn2C2CCCCC2)cc1 | 9% | 6.51 µM [rising, single point] | – |
| CN1/C(=C\C(=S)NC(=O)c2cccc(Br)c2)C(C)(C)c2ccccc21 | -48.6% | 11.6 µM [falling, partial curve] | 13 µM [falling, partial curve] |
| CC(C)(C)C(=O)Nc1ccc(C(=O)CN2C(=O)NC3(CCOc4ccccc43)C2=O)cc1 (centres undefined) | -12% | – | – |
